Publication PMC4252900
No constants are given. Whether binding was seen depends on the method and setting. In cells and extracts the contact can be indirect. Some results given as binding are weak or reduced against the parent protein; the word gives no strength. For part of these data: Tags and fused reporters may be left off the sequences shown. Blank lines part the entries; values can stand above or below the molecule they belong to.

What was measured:
[1] = target: T1, NRF2 (endogenous, HER2-amplified breast cancer cells) (human (endogenous in AU-565 and SK-BR-3)) (UniProt Q16236); test: co-IP; endogenous proteins in AU-565 and SK-BR-3 cells, serum-starved 24 hr, with or without 100 ng/ml heregulin (HRG) for 4 hr; immunoprecipitation of HER2 and NRF2, respectively, western blot
T1 sequence: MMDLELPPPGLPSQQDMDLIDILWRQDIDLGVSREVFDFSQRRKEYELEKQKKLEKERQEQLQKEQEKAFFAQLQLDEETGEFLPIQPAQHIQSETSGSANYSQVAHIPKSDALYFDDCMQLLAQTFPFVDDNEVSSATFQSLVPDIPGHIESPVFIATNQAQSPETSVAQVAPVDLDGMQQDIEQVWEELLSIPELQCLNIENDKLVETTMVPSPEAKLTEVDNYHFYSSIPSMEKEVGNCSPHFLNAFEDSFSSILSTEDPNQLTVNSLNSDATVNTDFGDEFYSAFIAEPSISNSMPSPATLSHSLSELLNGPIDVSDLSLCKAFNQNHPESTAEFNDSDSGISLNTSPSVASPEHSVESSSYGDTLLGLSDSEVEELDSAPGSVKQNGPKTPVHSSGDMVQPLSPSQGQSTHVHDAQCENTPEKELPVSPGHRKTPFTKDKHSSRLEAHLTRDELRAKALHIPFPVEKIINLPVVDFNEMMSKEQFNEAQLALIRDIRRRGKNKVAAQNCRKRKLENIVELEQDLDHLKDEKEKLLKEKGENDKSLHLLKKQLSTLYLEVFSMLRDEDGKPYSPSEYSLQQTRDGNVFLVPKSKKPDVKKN

[2] = target: constitutively active HER2 (HER2CA, V659E) (human) (UniProt P04626); test: co-IP; HEK293T cells transiently transfected with HER2CA and FLAG-NRF2 or GFP-NRF2; immunoprecipitation of HER2CA (FLAG-NRF2) or of GFP (GFP-NRF2), western blot
[3] = target: constitutively active HER2 (HER2CA, V659E) (human) (UniProt P04626); test: co-IP; data not shown: reciprocal immunoprecipitation of HER2CA from HEK293T cells transfected with HER2CA and GFP-NRF2

- binding [1]: binds
Molecule: HER2 (endogenous, HER2-amplified breast cancer cells) (from UniProt P04626 23-1255) (receptor)

- binding [2]: binds
B1: FLAG-NRF2 (protein, UniProt Q16236 1-605)
chain: T1 sequence

- binding [3]: binds
B2: GFP-NRF2 (protein, UniProt Q16236 1-605)
chain: T1 sequence
